# PubChem BioAssay AID493014 (National Center for Advancing Translational Sciences (NCATS), 2011)
# The list shows a part of the results. Further columns of the screen follow, without active or inactive calls. The list favours compounds with an active or inconclusive main result. The note in brackets gives the kind of curve behind each potency; many fits are weak.
# Assay: qHTS Assay to Find Inhibitors of Chronic Active B-Cell Receptor Signaling
# Conditions: ABC-DLBCL IkBa-CBG/CBR reporter, luminescence ratio (green luciferase fused to IkBa over red control in TMD8 lymphoma cells), 4 h
# In short: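 TMD8 ABC-DLBCL cells carrying doxycycline-inducible green luciferase fused to IkappaBalpha plus unfused red luciferase were exposed to compounds (up to 46 uM) for 4 hrs at 37C. Activity came from the overlap-corrected green/red luminescence ratio.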
# [1] = measured here: CBR red luminescence, cell number
# [2] = measured here: IkBa-CBG green luminescence
compound,measurement,setting,value
CC(C)C[C@H](NC(=O)[C@@H]1Cc2c([nH]c3ccccc23)C2c3ccccc3C(=O)N21)C(=O)NCC1CCCO1 (stereo not given in full),AC50,[1],"12.6 µM [falling, single point]"
COc1ccc(-c2noc(CSc3nc4ccccc4c(=O)n3-c3ccccc3)n2)cc1OC,AC50,[1],"29.1 µM [rising, single point]"
COc1ccc(C(=O)N2CCC(n3c(C)nc4cc(F)ccc43)CC2)cc1,AC50,[1],"1.12 µM [falling, partial curve, poor fit]"
COc1ccccc1/C=C1\SC(=O)N(CCC(=O)N(C)C2CCS(=O)(=O)C2)C1=O (stereo not given),AC50,[1],"10 µM [falling, partial curve]"
COC(=O)[C@H](CC(C)C)NC(=O)Nc1ccc(S(N)(=O)=O)cc1,AC50,[1],"35.5 µM [rising, single point]"
Cn1c(N)c(C(=O)CSc2n[nH]c(-c3ccccc3)n2)c(=O)n(C)c1=O,AC50,[1],"3.66 µM [rising, partial curve, poor fit]"
COc1ccc(C(O)P(=O)(OCC(C)C)c2ccc(N(C)C)cc2)c(OC)c1 (stereo not given),AC50,[1],"14.1 µM [rising, single point]"
COc1ccc(C(C)=O)cc1CSc1nc2cc(C(=O)O)ccc2c(=O)n1Cc1ccccc1,AC50,[1],"29.1 µM [rising, single point]"
CCN1C(=O)C(CC(=O)Nc2ccc(OC)cc2)N(CCc2ccc(OC)cc2)C1=S (stereo not given),AC50,[1],"35.5 µM [falling, partial curve, poor fit]"
CCN(CC)C(=O)CSc1nc(-c2ccc(C)cc2)nc2c1COC(C)(C)C2,AC50,[1],"0.058 µM [rising, full curve, poor fit]"
CCCC(=O)n1nc(-c2cccnc2)nc1NCc1ccc(OC)cc1,AC50,[1],"15.8 µM [falling, partial curve, poor fit]"
CC1CCCCN1CCCNC(=O)c1ccc2nc(N3CCCCC3)sc2c1 (stereo not given),AC50,[1],"5.01 µM [falling, partial curve, poor fit]"
COc1ccc(NS(=O)(=O)c2cccc(NC(=O)CNC(C)=O)c2)cc1,AC50,[1],"7.08 µM [rising, full curve, poor fit]"
COc1ccc(C)cc1S(=O)(=O)N(CC(=O)N1CCCC1)c1ccccc1,AC50,[1],"13 µM [rising, single point]"
Cc1nnsc1C(=O)N1CCN(c2ccc(C#N)cn2)CC1,AC50,[1],"3.16 µM [falling, partial curve]"
COC(=O)c1nn(-c2ccccc2)c(Sc2ccccc2)c1/C=N/O,AC50,[1],"22.4 µM [falling, partial curve, poor fit]"
Brc1ccc(-c2nc3ccccc3s2)s1,AC50,[1],"3.98 µM [rising, partial curve, poor fit]"
CSc1cc(-c2ccc(Cl)cc2)c(C(=O)NN)s1,AC50,[1],"10 µM [rising, partial curve, poor fit]"
Cc1[nH]c2ccccc2c1/C=N/Nc1nc2ccccc2[nH]1,AC50,[1],"31.6 µM [falling, single point]"
same,AC50,[2],"20 µM [falling, single point]"
COc1ccccc1N1C(=O)CC1(C#N)c1ccc(OCc2ccccc2)cc1 (stereo not given),AC50,[1],"29.1 µM [falling, single point]"
Oc1ccc(-c2nnc(Nc3cccc(O)c3)c3ccccc23)cc1,AC50,[1],"35.5 µM [falling, single point]"
same,AC50,[2],"6.31 µM [falling, partial curve, poor fit]"
O=C(COC(=O)CSc1ccc2ccccc2c1)Nc1ccccc1OC(F)F,AC50,[1],"20.6 µM [rising, partial curve, poor fit]"
CCOC(=O)c1sc(N)c(C(=O)OCC)c1COC(=O)C1CC(=O)N(Cc2ccco2)C1 (stereo not given),AC50,[1],"18.4 µM [rising, single point]"
COCc1cc(OC)nc(-c2csc(C)n2)n1,AC50,[1],"5.62 µM [rising, single point]"
CN1CCN(c2ccc(-c3cccc(NC(=O)COc4ccccc4)c3)nn2)CC1,AC50,[1],"20.6 µM [falling, single point]"
CC(=O)c1ccc(OC(=O)CCN2c3ccccc3Sc3ccccc32)cc1,AC50,[1],"20.6 µM [falling, single point]"
COCCSc1ccccc1C(=O)Nc1ccc(Cl)cn1,AC50,[1],"0.731 µM [rising, full curve, poor fit]"
Cc1ccc(NC(=O)Nc2ccc3c(c2)N(C)C(=O)CS3)cc1C,AC50,[1],"6.51 µM [rising, single point]"
Cc1ccc(N(Cc2ccccc2)C(=O)c2cccc(S(=O)(=O)N3CC(C)OC(C)C3)c2)cc1 (stereo not given),AC50,[1],"29.1 µM [falling, single point]"
N#Cc1ccsc1NC(=O)CN1CCN(c2ccccn2)CC1,AC50,[1],"0.366 µM [rising, full curve, poor fit]"
COc1cc(C(=S)N2CCC(C)CC2)ccc1O,AC50,[1],"25.9 µM [rising, single point]"
COc1ccccc1-c1nc(-c2ccccn2)no1,AC50,[1],"8.2 µM [falling, partial curve, poor fit]"
Cc1nn(C)c(C)c1N1C(=O)c2cccc3c(Br)ccc(c23)C1=O,AC50,[1],"5.17 µM [falling, partial curve, poor fit]"
same,AC50,[2],"3.66 µM [rising, full curve]"
O=S(=O)(NCc1cn2ccccc2n1)c1cccs1,AC50,[1],"3.55 µM [falling, partial curve, poor fit]"
O=C(NCCC1=CCCCC1)c1ccc(Cl)cc1,AC50,[1],"11.2 µM [falling, partial curve, poor fit]"
COc1ccc(NC(=O)CCNS(=O)(=O)c2cccc(C(C)=O)c2)cc1S(N)(=O)=O,AC50,[1],"35.5 µM [rising, single point]"
O=C(N/N=C/c1ccoc1)c1cc(Br)ccc1O,AC50,[1],"0.501 µM [falling, full curve]"
Fc1ccc(-n2ncc3c(NCCC4=CCCCC4)ncnc32)cc1,AC50,[1],"0.501 µM [rising, full curve]"
CCOC(=O)c1ccc(NC(=O)COc2cc3oc(=O)c(CC(C)O)c(C)c3cc2Cl)cc1 (stereo not given),AC50,[1],"0.0891 µM [rising, full curve, poor fit]"
COc1cccc(NS(=O)(=O)c2ccc3[nH]cc(C(=O)NCCC(C)C)c(=O)c3c2)c1,AC50,[1],"35.5 µM [falling, single point]"
CCCCC(=O)N1CCCC(c2nc3c(nnn3Cc3cc(C)ccc3C)c(=O)[nH]2)C1 (stereo not given),AC50,[1],"3.98 µM [rising, single point]"
COc1ccccc1C(=O)COC(=O)c1ccc(-n2cnnn2)cc1,AC50,[1],"7.31 µM [falling, partial curve, poor fit]"
CNC(=O)C(C#N)(Cc1cc(C(C)=O)ccc1OC)Cc1cc(C(C)=O)ccc1OC,AC50,[1],"0.794 µM [rising, full curve, poor fit]"
COCCN(C(=O)Cc1ccc(OC)c(OC)c1)c1nc(-c2cc(OC)ccc2OC)cs1,AC50,[1],"17.8 µM [rising, single point]"
COc1ccc(/C=N/Nc2cc(C)nc3c(C)cccc23)cc1,AC50,[1],"35.5 µM [falling, partial curve, poor fit]"
CC(SC#N)C(=O)C12CC3CC(CC(C3)C1)C2 (stereo not given),AC50,[1],"3.55 µM [falling, full curve, poor fit]"
O=C(NNC(=O)c1ccc(O)c(Cl)c1)c1cccc(S(=O)(=O)N2CCOCC2)c1,AC50,[1],"29.1 µM [falling, single point]"
N#C/C(C(=O)N1CCOCC1)=C1\Nc2ccccc2S1,AC50,[1],"1.46 µM [falling, full curve, poor fit]"
CCN1C(=O)C(CC(=O)Nc2ccc(F)cc2)N(Cc2ccco2)C1=S (stereo not given),AC50,[1],"25.1 µM [falling, single point]"
C=CCOc1ccc(C(=O)Nc2ccccc2C(=O)NCc2cccnc2)cc1,AC50,[2],"11.2 µM [falling, partial curve, poor fit]"
O=C(CSc1nnc(NC(=O)c2ccc(F)cc2)s1)NCc1ccco1,AC50,[1],"12.6 µM [falling, partial curve, poor fit]"
COc1ccc(/C=N/NC(=O)c2[nH]c3ccc(C)cc3c2-c2ccccc2)c(C(=O)O)c1OC,AC50,[2],"7.08 µM [falling, full curve]"
CN(Cc1ccccc1)S(=O)(=O)c1cc2c3c(c1)CCN3C(=O)CC2,AC50,[1],"1.3 µM [rising, partial curve]"
CC(=O)Nc1ccc(S(=O)(=O)NCCC(=O)NCC2COc3ccccc3O2)cc1 (stereo not given),AC50,[1],"10 µM [rising, single point]"
C/C(=N/NC(=O)CSc1nc2ccccc2n1C)c1ccc(O)cc1,AC50,[1],"6.31 µM [falling, partial curve]"
COc1ccccc1N1CCN(S(=O)(=O)c2ccc(NC(C)=O)cc2)CC1,AC50,[1],"22.4 µM [rising, partial curve, poor fit]"
C[C@H]1COc2c(C3(N)CC3)c(F)cc3c(=O)c(C(=O)O)cn1c23,AC50,[1],"8.91 µM [falling, partial curve, poor fit]"
CCOC(=O)c1nn(-c2ccc(Cl)cc2)c2nc(Nc3ccccc3)cc(=O)n12,AC50,[1],"23.1 µM [rising, single point]"
COc1ccc2[nH]cc(C(=O)CCl)c2c1,AC50,[1],"10 µM [falling, partial curve, poor fit]"
COc1ccc(-n2cnc3cc([N+](=O)[O-])ccc32)cc1,AC50,[1],"3.55 µM [rising, partial curve, poor fit]"
COc1ccc(C(=O)/C=C(\C)Nc2ccc3c(c2)OCO3)cc1,AC50,[1],"15.8 µM [rising, single point]"
Cc1ccc(S(=O)(=O)NCCC(=O)NC2CCC(C)CC2)cc1 (stereo not given),AC50,[1],"6.51 µM [rising, partial curve, poor fit]"

# Reprinted at random: 4 records from the list, in no set order.
compound,measurement,setting,value
COC(=O)c1nn(-c2ccccc2)c(Sc2ccccc2)c1/C=N/O,AC50,[1],"22.4 µM [falling, partial curve, poor fit]"
COCc1cc(OC)nc(-c2csc(C)n2)n1,AC50,[1],"5.62 µM [rising, single point]"
Oc1ccc(-c2nnc(Nc3cccc(O)c3)c3ccccc23)cc1,AC50,[1],"35.5 µM [falling, single point]"
O=C(CSc1nnc(NC(=O)c2ccc(F)cc2)s1)NCc1ccco1,AC50,[1],"12.6 µM [falling, partial curve, poor fit]"

# A section from further up, as a working copy:
compound,measurement,setting,value
O=C(COC(=O)CSc1ccc2ccccc2c1)Nc1ccccc1OC(F)F,AC50,[1],"20.6 µM [rising, partial curve, poor fit]"
CCOC(=O)c1sc(N)c(C(=O)OCC)c1COC(=O)C1CC(=O)N(Cc2ccco2)C1 (stereo not given),AC50,[1],"18.4 µM [rising, single point]"
